Screen size: about 1,100 compounds; fewer than 10 were called active. Roughly 6% stayed inconclusive and do not appear here. Calls follow the shape of the dose curve; as a rule, active = well fitted cell-killing curve with a large enough effect; inconclusive = small, poorly fitted or top-dose-only effect; inactive = flat fitted curve, though single readings scatter. This is one part of the list.
Experiment: qHTS of Nrf2 Activators: Hit Validation in Cytotox Assay;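 also: compound exposure lasted 24 hours before the ATP readout; 0% is about no effect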
Details: Cell viability counter-screen for Nrf2 activator hits; series mostly up to 46.1 µM; activity change, negative = cytotoxicity: at the top concentration
Summary of the method: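 AREc32_fluc cells plated overnight, then treated at 7 concentrations for 24 h at 37 °C. Viability from intracellular ATP by CellTiter-Glo luminescence after 30 min at room temperature; cytotoxic compounds flagged active.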

SMILES	activity change, negative = cytotoxicity
Cc1cccc2cc3c(nc12)-c1ccccc1C3=O	inactive: -3.79%
Cc1ccc(C(=O)/C=C/c2ccc(-c3ccccc3[N+](=O)[O-])o2)cc1	inactive: -3.82%
NS(=O)(=O)c1ccc(NC(=O)c2cc(-c3cccs3)nc3ccccc23)cc1	inactive: 5.11%
CC1CN(c2sc(S(C)(=O)=O)nc2S(=O)(=O)c2ccc(Cl)cc2)CC(C)O1 (centres undefined)	inactive: 5.4%
c1ccc(-c2nnc(-c3ccccc3)o2)cc1	inactive: -19%
CC(/C=N/Nc1nnc2c(n1)[nH]c1ccccc12)=C\c1ccco1	inactive: 5.44%
Brc1ccccc1/C=N/Nc1ccccn1	inactive: 2.41%
Cc1cc(O)cc2c1C(=O)/C(=C/c1ccco1)O2	inactive: -8.07%
O=C(COC(=O)/C=C/c1ccco1)NCc1ccccc1Cl	inactive: 4.46%
Cc1ccc(S(=O)(=O)c2nc(S(C)(=O)=O)sc2N2CC(C)OC(C)C2)cc1 (centres undefined)	inactive: -1.79%
Fc1ccc2nncc(SCc3ccccc3Cl)c2c1	inactive: 1.57%
Cc1cc(NC(=O)C2CCCC2)nc2c1c(=O)oc1ccccc12	inactive: -13.8%
CC(C)N(C(=O)COC(=O)c1ccccc1C(=O)c1ccc(Cl)c([N+](=O)[O-])c1)C(C)C	inactive: 8.41%
Brc1ccc2nc(-c3ccco3)c(Cc3ccsc3)n2c1	inactive: -1.38%
COc1cccc(C(=O)Nc2cc(Cl)c(O)c(Cl)c2)c1	inactive: 3.69%
Cn1c(NC(=O)/C=C/c2ccccc2)cc(=O)n(C)c1=O	inactive: -3.69%
COC(=O)c1sc(NC(=O)c2ccco2)nc1C	inactive: -25.6%
CC(=O)c1cc2c(cc1NC(=O)CSc1nc3ccccc3o1)OCO2	inactive: -2.64%
N/C(=N\OC(=O)c1cc(Cl)ccc1Cl)c1cccnc1	inactive: -4.62%
CCOc1ccccc1NS(=O)(=O)c1c(C(=O)OC)sc2cccc(F)c12	inactive: -1.18%

SMILES	activity change, negative = cytotoxicity
Cc1cc(C)c(C#N)c(SCC(=O)c2cccs2)n1	inactive: 3.09%
O=C(N/N=C/C(Br)=C/c1ccccc1)c1ccc([N+](=O)[O-])cc1	inactive: -1.16%
Cc1ncc(N=Nc2ccccc2)c(-c2ccccc2)n1	inactive: 8.88%
CCSc1ncc(Cl)c(C(=O)Nc2ccccc2)n1	inactive: 1.02%
COc1ccccc1NC(=O)c1cnc(SCC(=O)NCCc2ccccc2)n(C)c1=O	inactive: -18.2%
O=C(CCCCCCC(=O)Nc1ccccc1)NO	inactive: -11.5%
Cc1cc(SCC(=O)N/N=C/c2ccco2)nc2ccccc12	inactive: -1.85%
Cc1cccc(CC2S/C(=N/N=C/c3ccco3)NC2=O)c1 (centres undefined)	inactive: 5.65%
N#C/C(=C\c1c(Oc2ccc(Cl)cc2)nc2ccccn2c1=O)C(=O)NC1CCS(=O)(=O)C1 (centres undefined)	inactive: 6.87%
CCn1ncc(Br)c1C(=O)Nc1cc([N+](=O)[O-])ccc1C	inactive: 1.52%
CCOC(=O)c1ccccc1N/C=C/C(=O)c1cccs1	inactive: -4.29%
O=C(/C=C/c1ccco1)Nc1ccc2nn(-c3ccccc3)nc2c1	inactive: -7.5%
Cc1cccc(-c2n[nH]c(=S)n2/N=C/C=C/c2ccco2)c1	inactive: 4.91%
O=C(Nc1nnc(-c2ccccc2F)s1)Nc1ccccc1F	inactive: 2.4%
Cc1ccc(S(=O)(=O)c2nc(S(C)(=O)=O)sc2N2CCOCC2)cc1	inactive: 10.6%
CC(C)(C)SCCNC(=O)/C=C/c1cccc([N+](=O)[O-])c1	inactive: -0.617%
Cn1c(SCC(=O)N/N=C/C=C\c2ccccc2[N+](=O)[O-])nc2ccccc21	inactive: -4.27%
COc1ccc(NC(=O)c2ccc([N+](=O)[O-])s2)c([N+](=O)[O-])c1	inactive: -0.981%
Clc1cccc(Cc2c(-c3ccccc3)nc3c4ccccc4ccn23)c1	inactive: -6.37%
O=C(Nc1ccc2c(c1)C(=O)NC2=O)c1cccc(C(F)(F)F)c1	inactive: -0.226%

Three structures already listed, ordered by formula weight, smallest number first.
SMILES	activity change, negative = cytotoxicity
Cc1cc(C)c(C#N)c(SCC(=O)c2cccs2)n1	inactive: 3.09%
Cc1cccc(-c2n[nH]c(=S)n2/N=C/C=C/c2ccco2)c1	inactive: 4.91%
Cc1cccc(CC2S/C(=N/N=C/c3ccco3)NC2=O)c1 (centres undefined)	inactive: 5.65%

The listing continues:

SMILES	activity change, negative = cytotoxicity
COc1cc2c(cc1NC(=O)c1ccccc1F)CCCC2	inactive: 10.5%
COc1ccc(-c2csc3nc(-c4cccnc4)nc(Cl)c23)cc1OC	inactive: -17.4%
COC(=O)c1sccc1NC(=O)c1ccccc1	inactive: 4.25%
Cc1cc(NC(=O)Nc2cc(Cl)sc2Cl)no1	inactive: 8.37%
CC(C)c1ccc(NC(=O)c2sccc2-n2cccc2)cc1	inactive: -13.6%
CC(=O)Oc1c(-c2ccco2)oc2ccccc2c1=O	inactive: -19.7%
Cc1ccc(N=C2NC(=O)/C(=C/C=C/c3ccco3)S2)cc1	inactive: -7.89%
COc1ccc(/C(N)=N/OC(=O)c2cccc([N+](=O)[O-])c2)cc1	inactive: -1.04%
O=C1c2cccc3cccc(c23)C(=O)N1CCCN(C(=O)c1cccs1)c1cccc(F)c1	inactive: 10.7%
Cc1ccccc1NC(=O)/C(C#N)=C/c1ccsc1	inactive: 0.178%
N=c1oc2ccccc2cc1-c1nc(-c2ccccc2)cs1	inactive: -19%
Cn1cc([N+](=O)[O-])c(C(=O)Nc2ccc(-c3nc4ccccc4o3)cc2)n1	inactive: 6.82%
COc1ccc(Cl)cc1NC(=O)c1cc(-c2ccccc2O)n[nH]1	inactive: -4.67%
CCOc1ncccc1-c1nc(-c2cccs2)no1	inactive: -3.05%
Cc1ccc(C)c(/C=N/Nc2ccccn2)c1	inactive: 9.8%
Clc1ccc2c(NCc3ccccn3)ncnc2c1	inactive: 0.542%
CCCS(=O)(=O)c1nc(S(=O)(=O)c2ccc(C)cc2)c(N2CC(C)OC(C)C2)s1 (centres undefined)	inactive: -6.55%
NC(=O)c1nc(Nc2ccccc2)sc1NC(=O)c1c(F)cccc1F	inactive: 10.2%
CC1Sc2n(c3ccccc3[n+]2C)N=C1c1ccccc1 (centres undefined)	inactive: -20.4%

From PubChem BioAssay AID651595 (National Center for Advancing Translational Sciences (NCATS), 2012)
